# ± gives the standard deviation of the averaged measurements. Some of the results follow.
# Protein sequences, listed by entry. Tags and fused reporters are not part of them. Lines headed by an entry give the natural chain unless they say otherwise; changes in a name come on top.
# UniProt Q9UQN3, whole entry: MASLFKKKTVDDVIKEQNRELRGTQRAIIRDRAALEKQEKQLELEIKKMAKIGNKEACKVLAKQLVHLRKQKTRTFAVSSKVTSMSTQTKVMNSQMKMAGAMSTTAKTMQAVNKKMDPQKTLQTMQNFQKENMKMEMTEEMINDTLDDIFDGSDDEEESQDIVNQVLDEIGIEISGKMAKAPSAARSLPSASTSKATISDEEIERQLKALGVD
# UniProt Q9Y5X2: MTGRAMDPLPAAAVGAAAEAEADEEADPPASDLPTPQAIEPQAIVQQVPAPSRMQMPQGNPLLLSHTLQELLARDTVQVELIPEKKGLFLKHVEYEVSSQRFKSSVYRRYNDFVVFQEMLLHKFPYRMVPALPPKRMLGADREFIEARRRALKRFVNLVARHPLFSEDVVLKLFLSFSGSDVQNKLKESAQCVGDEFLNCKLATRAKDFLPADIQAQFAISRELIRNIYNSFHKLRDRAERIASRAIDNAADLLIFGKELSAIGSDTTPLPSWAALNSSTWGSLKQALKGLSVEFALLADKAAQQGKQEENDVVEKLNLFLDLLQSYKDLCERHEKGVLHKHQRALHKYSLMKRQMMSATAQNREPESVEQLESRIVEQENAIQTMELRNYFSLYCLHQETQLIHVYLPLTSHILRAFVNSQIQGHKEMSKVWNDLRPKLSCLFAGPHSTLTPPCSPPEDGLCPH
# UniProt Q9Y639: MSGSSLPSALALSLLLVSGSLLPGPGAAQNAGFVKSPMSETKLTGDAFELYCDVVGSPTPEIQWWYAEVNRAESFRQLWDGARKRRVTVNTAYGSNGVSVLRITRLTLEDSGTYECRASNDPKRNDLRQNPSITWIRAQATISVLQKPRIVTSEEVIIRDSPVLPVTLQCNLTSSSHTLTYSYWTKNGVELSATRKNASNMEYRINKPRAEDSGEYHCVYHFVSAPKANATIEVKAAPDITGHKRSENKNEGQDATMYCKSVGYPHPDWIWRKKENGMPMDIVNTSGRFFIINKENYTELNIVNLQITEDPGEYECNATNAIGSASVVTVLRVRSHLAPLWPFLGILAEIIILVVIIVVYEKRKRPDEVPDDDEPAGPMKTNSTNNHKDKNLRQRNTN
# UniProt Q9Y2G2: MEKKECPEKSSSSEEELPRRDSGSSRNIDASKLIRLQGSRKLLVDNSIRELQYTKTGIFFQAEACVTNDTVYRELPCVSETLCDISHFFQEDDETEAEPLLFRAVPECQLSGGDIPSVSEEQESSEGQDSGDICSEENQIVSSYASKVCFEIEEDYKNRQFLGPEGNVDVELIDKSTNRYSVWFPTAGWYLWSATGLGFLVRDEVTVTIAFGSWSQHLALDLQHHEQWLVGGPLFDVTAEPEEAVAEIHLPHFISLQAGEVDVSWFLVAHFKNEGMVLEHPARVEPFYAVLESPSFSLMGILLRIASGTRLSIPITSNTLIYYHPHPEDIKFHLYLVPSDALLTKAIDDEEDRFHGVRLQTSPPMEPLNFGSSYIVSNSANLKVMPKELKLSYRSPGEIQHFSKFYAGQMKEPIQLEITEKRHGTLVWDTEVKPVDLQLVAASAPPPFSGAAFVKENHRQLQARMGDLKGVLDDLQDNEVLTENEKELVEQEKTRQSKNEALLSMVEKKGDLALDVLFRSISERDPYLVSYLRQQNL
# UniProt Q9Y3C6: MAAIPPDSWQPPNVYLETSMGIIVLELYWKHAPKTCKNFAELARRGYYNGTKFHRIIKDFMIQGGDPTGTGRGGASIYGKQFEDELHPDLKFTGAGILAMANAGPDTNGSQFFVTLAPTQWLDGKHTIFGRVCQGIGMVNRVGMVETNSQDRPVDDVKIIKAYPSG
# Compound: Nc1nc2c(ncn2[C@@H]2O[C@H](COP(=O)(O)OP(=O)(O)OP(=O)(O)O)[C@@H](O)[C@H]2O)c(=O)[nH]1 [guanosine triphosphate]
# Assay: NP40-soluble protein abundance relative to vehicle (solubility fold change) (ratio); higher = more soluble protein in presence of GTP
# Description: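 Solubility proteome profiling in Jurkat crude lysate. Lysate was treated with Mg-GTP (0.1-10 mM) for 10 min at room temperature and 3 min at 37 °C, then solubilised with 0.8% NP40 and benzonase, followed by ultracentrifugation. Proteins were quantified by TMT10 LC-MS/MS; the value is the NP40-soluble abundance relative to the NP40-processed vehicle, from 3 independent experiments.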
Target,NP40-soluble protein abundance (concentration: 0.1mM),NP40-soluble protein abundance (concentration: 0.5mM),NP40-soluble protein abundance (concentration: 1mM),NP40-soluble protein abundance (concentration: 2mM),NP40-soluble protein abundance (concentration: 4mM),NP40-soluble protein abundance (concentration: 6mM),NP40-soluble protein abundance (concentration: 8mM),NP40-soluble protein abundance (concentration: 10mM)
CHMP2B (UniProt Q9UQN3),0.905 ± 0.051,0.909 ± 0.092,0.989 ± 0.079,0.931 ± 0.15,0.938 ± 0.12,0.967 ± 0.14,0.953 ± 0.085,0.932 ± 0.11
SNX8 (UniProt Q9Y5X2),0.94 ± 0.036,0.879 ± 0.045,0.976 ± 0.065,0.983 ± 0.076,0.982 ± 0.098,0.951 ± 0.06,0.894 ± 0.066,0.932 ± 0.055
UniProt Q9Y639 and related entries,0.879 ± 0.045,0.86 ± 0.05,0.95 ± 0.035,0.927 ± 0.039,0.95 ± 0.038,0.92 ± 0.042,0.902 ± 0.039,0.994 ± 0.081
UniProt Q9Y2G2 and related entries,0.953 ± 0.066,1 ± 0.064,0.977 ± 0.093,0.9578 ± 0.0016,0.887 ± 0.12,0.906 ± 0.057,1.01 ± 0.037,0.92 ± 0.09
PPIL1 (UniProt Q9Y3C6),0.9073 ± 0.0054,0.866 ± 0.044,0.9402 ± 0.0075,0.894 ± 0.029,0.923 ± 0.04,0.917 ± 0.043,0.897 ± 0.075,0.935 ± 0.044

# From the supplement of paper PMC6411743
